For assay [1], the target named is T1, C3aR with SmBiT fused at the C-terminus (Receptor-SmBiT) (human) (UniProt Q16581).
T1 sequence: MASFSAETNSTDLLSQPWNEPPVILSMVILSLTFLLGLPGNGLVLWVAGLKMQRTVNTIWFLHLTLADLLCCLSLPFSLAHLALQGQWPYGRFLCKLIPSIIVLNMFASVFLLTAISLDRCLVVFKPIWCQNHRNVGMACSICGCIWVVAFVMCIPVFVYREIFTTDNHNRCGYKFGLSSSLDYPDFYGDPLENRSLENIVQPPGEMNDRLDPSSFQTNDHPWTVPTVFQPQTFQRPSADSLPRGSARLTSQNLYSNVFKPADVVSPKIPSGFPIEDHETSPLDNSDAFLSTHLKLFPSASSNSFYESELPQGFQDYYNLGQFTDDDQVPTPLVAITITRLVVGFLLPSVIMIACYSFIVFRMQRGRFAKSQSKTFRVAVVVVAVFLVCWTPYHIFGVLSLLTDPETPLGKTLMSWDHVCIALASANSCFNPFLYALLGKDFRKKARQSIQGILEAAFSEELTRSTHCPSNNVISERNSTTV
Description: split reporter.

Chains of the proteins cited; added tags and fusions are not shown.
UniProt P21730: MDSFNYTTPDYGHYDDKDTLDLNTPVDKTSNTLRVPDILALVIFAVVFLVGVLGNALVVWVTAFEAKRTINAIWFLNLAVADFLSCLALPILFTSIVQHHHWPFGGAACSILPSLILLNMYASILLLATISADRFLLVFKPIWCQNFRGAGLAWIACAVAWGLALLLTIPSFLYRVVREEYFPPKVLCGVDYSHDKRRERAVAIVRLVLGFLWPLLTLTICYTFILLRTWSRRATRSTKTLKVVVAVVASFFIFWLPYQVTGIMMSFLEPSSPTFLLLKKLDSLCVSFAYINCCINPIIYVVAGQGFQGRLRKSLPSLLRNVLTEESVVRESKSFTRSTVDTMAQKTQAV
UniProt P32121: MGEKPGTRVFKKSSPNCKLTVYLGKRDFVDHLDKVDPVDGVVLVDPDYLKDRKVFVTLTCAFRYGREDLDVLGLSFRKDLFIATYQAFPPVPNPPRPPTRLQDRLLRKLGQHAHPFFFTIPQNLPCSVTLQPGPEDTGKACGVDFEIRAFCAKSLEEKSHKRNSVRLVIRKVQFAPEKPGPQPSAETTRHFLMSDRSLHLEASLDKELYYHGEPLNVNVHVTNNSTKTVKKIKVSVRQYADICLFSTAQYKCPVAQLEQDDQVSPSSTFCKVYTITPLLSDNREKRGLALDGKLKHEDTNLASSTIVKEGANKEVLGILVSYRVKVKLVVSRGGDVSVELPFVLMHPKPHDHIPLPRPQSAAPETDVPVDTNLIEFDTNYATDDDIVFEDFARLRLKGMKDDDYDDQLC
UniProt P49407: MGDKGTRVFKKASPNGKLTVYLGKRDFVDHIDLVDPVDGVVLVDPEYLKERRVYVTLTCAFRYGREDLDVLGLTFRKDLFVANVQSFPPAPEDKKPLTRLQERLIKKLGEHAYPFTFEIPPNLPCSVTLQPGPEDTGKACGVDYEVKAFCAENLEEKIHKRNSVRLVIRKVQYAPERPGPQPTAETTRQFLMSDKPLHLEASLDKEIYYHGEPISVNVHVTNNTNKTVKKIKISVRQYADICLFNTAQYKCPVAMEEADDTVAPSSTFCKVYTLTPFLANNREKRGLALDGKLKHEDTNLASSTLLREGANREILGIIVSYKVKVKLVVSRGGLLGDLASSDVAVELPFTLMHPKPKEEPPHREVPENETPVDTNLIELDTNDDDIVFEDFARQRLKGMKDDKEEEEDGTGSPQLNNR

Assay [2] addresses C5aR1 with SmBiT fused at the C-terminus (Receptor-SmBiT) (UniProt P21730). Put plainly: split reporter.

Results are given in words; binding and its absence hold for the method and conditions named. Binding seen in cells or lysates may run through a third protein. Some binding calls cover weakened binding; strength is not graded here. For some of these results: Tags and fused reporters may be left off the sequences shown.

Regarding “βarr2 with N-terminal LgBiT (from UniProt P32121 1-409)”, the binding entry in assay [1] and in assay [2] was “binds” throughout.

For the substance “βarr1 with N-terminal LgBiT (from UniProt P49407 1-418)”, the binding result in assay [1] and in assay [2] was “binds” throughout.

The values are drawn from doi:10.1101/2023.02.09.527835 (bioRxiv, 2023).
